Laboratory results reported in patent EP4664463A1, “COMPUTER-IMPLEMENTED METHOD FOR OLFACTORY PROPERTY PREDICTION” (Givaudan SA, priority 2024, dated 2025).
For at least one compound, name, drawing or mass did not settle the structure.

Experiments:
[1] = tested on: library of all class II OR with modified C-terminal domain RNKEVKKAIKRLFKRKCCRRR (SEQ ID NO: 221); experiment: Screening of the library of all class II OR with single odorants (luciferase); format: cell-based, human; settings: full class II OR library (n = 408); maximal non-cytotoxic concentration
Method: All human class II OR and all key genetic variants of these OR were synthesized with a sequence coding for an identical modified C-terminal domain […] (SEQ ID NO: 221) in the vector pcDNA3.1(+) to generate a library of all class II OR with an improved C-terminal domain. Class II OR library members with modified C-terminal domains
Parallel transfection experiments were conducted with all these plasmids (n = 408) and cells expressing the different OR were stimulated with one given ligand at a time, tested at the maximal, clearly non-cytotoxic concentration. In total 26 different ligands were tested on the full library of class II receptors.

[2] = tested on: library of all class I OR with C-terminal domain RNKQIRDALKRLLKRKCCRRR (SEQ ID NO: 741); experiment: Screening of the library of all class I OR with carboxylic acid ligands (luciferase); format: cell-based, human; settings: full class I OR library (n = 77)
Method: All human class I OR and all key genetic variants of these OR were synthesized with a sequence coding for the identical C-terminal domain […] (SEQ ID NO: 741) in the vector pcDNA3.1(+) to generate a library of all class I OR with an improved C-terminal domain. Class I OR library members
Parallel transfection experiments were conducted with all these plasmids (n = 77, SEQ ID NO: 760, OR51F1 was excluded due to poor plasmid yield) and cells expressing the different OR were stimulated with one given ligand at a time. In total 10 different carboxylic acids ligands were tested on the full library of class I receptors.

Compound	Activated OR and OR variants [1]	Activated OR and OR variants [2]
C/C=C/C(=O)C1C(C)C=CCC1(C)C (centres unmarked) [delta-Damascone]	OR8K3(L122R)	–
CC1(CO)CC1CC1CC2CC2(C)C1(C)C (centres unmarked) [Javanol]	OR7A17	–
CC(C)C1=CCC(C(=O)O)CC1 (centres unmarked) [4-lsopropylcyclohex-3-ene carboxylic acid]	–	OR52E8
CC/C=C\CC/C=C/C=O [trans 2, cis 6-Nonadienal]	OR10J5	–
C=C(C)[C@@H]1CC[C@H](C)C2=C(C1)[C@@H](C)CC2=O [Rotundone]	OR7A10, OR7A5, OR7A17	–
